This passage reports binding signal (log2 enrichment (interaction score)) results from PMC8384837.

Details in all cases: yeast three-hybrid, YBZ-1, SC-Leu-His + 0.5 mM 3-AT, 4 days
For test [1], the target named is T1, PUM1 PUF domain R3-FCL C935F + R936C + Q939L (Homo sapiens) (UniProt Q14671).
T1 sequence: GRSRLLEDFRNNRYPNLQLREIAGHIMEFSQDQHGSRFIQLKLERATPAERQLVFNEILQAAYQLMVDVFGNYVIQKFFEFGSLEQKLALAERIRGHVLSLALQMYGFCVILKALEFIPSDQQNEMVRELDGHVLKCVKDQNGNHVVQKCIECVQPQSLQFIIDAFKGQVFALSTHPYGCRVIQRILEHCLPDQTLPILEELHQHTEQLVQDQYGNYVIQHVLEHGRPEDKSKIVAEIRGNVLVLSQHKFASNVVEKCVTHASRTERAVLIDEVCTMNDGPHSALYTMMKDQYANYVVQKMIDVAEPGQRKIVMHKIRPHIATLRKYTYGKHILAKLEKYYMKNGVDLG

Test [2] has as its target T2, PUM1 PUF domain R3-FCS C935F + R936C + Q939S (Homo sapiens) (UniProt Q14671).
T2 sequence: T1 sequence with L112S

In test [3] the target is T3, PUM1 PUF domain R3-FRP C935F + Q939P (Homo sapiens) (UniProt Q14671).
T3 sequence: T1 sequence with C109R, L112P

Test [4] concerns the target T4, PUM1 PUF domain R3-GCE C935G + R936C + Q939E (Homo sapiens) (UniProt Q14671).
T4 sequence: T1 sequence with F108G, L112E

Test [5] concerns the target T5, PUM1 PUF domain R3-KSG C935K + R936S + Q939G (Homo sapiens) (UniProt Q14671).
T5 sequence: T1 sequence with F108K, C109S, L112G

Test [6] deals with T6, PUM1 PUF domain R3-RAF C935R + R936A + Q939F (Homo sapiens) (UniProt Q14671).
T6 sequence: T1 sequence with F108R, C109A, L112F

In test [7] the target is T7, PUM1 PUF domain R3-RGG C935R + R936G + Q939G (Homo sapiens) (UniProt Q14671).
T7 sequence: T1 sequence with F108R, C109G, L112G

Test [8] has as its target T8, PUM1 PUF domain R3-RGR C935R + R936G + Q939R (Homo sapiens) (UniProt Q14671).
T8 sequence: T1 sequence with F108R, C109G, L112R

For test [9], the target named is T9, PUM1 PUF domain R3-RPG C935R + R936P + Q939G (Homo sapiens) (UniProt Q14671).
T9 sequence: T1 sequence with F108R, C109P, L112G

Test [10] deals with T10, PUM1 PUF domain R3-RPV C935R + R936P + Q939V (Homo sapiens) (UniProt Q14671).
T10 sequence: T1 sequence with F108R, C109P, L112V

Test [11] deals with T11, PUM1 PUF domain R3-RRA C935R + Q939A (Homo sapiens) (UniProt Q14671).
T11 sequence: T1 sequence with F108R, C109R, L112A

Test [12] deals with T12, PUM1 PUF domain R3-RRS C935R + Q939S (Homo sapiens) (UniProt Q14671).
T12 sequence: T1 sequence with F108R, C109R, L112S

Test [13] addresses T13, PUM1 PUF domain R3-RRW C935R + Q939W (Homo sapiens) (UniProt Q14671).
T13 sequence: T1 sequence with F108R, C109R, L112W

The target in test [14] is T14, PUM1 PUF domain R3-RSR C935R + R936S + Q939R (Homo sapiens) (UniProt Q14671).
T14 sequence: T1 sequence with F108R, C109S, L112R

Test [15] deals with T15, PUM1 PUF domain R3-RTL C935R + R936T + Q939L (Homo sapiens) (UniProt Q14671).
T15 sequence: T1 sequence with F108R, C109T

For test [16], the target named is T16, PUM1 PUF domain R3-VSK C935V + R936S + Q939K (Homo sapiens) (UniProt Q14671).
T16 sequence: T1 sequence with F108V, C109S, L112K

Test [17] concerns the target T17, PUM1 PUF domain R3-YCG C935Y + R936C + Q939G (Homo sapiens) (UniProt Q14671).
T17 sequence: T1 sequence with F108Y, L112G

Test [18] has as its target T18, PUM1 PUF domain R3-YRG C935Y + Q939G (Homo sapiens) (UniProt Q14671).
T18 sequence: T1 sequence with F108Y, C109R, L112G

For test [19], the target named is T19, PUM1 PUF domain R4-THP N971T + Q975P (Homo sapiens) (UniProt Q14671).
T19 sequence: T1 sequence with F108C, C109R, L112Q, N144T, Q148P

Test [20] addresses T20, PUM1 PUF domain R4-TPE N971T + H972P + Q975E (Homo sapiens) (UniProt Q14671).
T20 sequence: T1 sequence with F108C, C109R, L112Q, N144T, H145P, Q148E

Substitutions are numbered along the chain they refer to. The list shows a part of the results.

Regarding “GGCUAGAACUAGUGGAUCCCCCGGCGCCCGGCGGCUCGAGCCCGGGUAAGUGUAAAUAGUCUGCAUGCCGCCGGGCGCCAUGCCUGCAGGUCGACUCUAGAAAACAUG”, the binding signal (log2 enrichment (interaction score)) in test [1] was -0.45; in [2], -0.92; in test [3], -2.24; in test [4] it was -1.49; in test [5], -1.22; in [6], -1.72. For the same sequence, the binding signal (log2 enrichment (interaction score)) in test [7] is -1.74; in test [8] it was -1.7; in test [9], -1.29; in [10] it was -0.29; in test [11] it was -1.99; in test [12], -1.65. For the same sequence, the binding signal (log2 enrichment (interaction score)) in test [13] was -0.79; in test [14] it was -1.71; in test [15], -1.46; in test [16], -1.02; in test [17] it was -1.75; in test [18] it was -1.36. Further, the binding signal (log2 enrichment (interaction score)) in test [19] is 1.58; in test [20] it was -6.19.

For “GGCUAGAACUAGUGGAUCCCCCGGCGCCCGGCGGCUCGAGCCCGGGUAAGUGUAAUUAGUCUGCAUGCCGCCGGGCGCCAUGCCUGCAGGUCGACUCUAGAAAACAUG”, the binding signal (log2 enrichment (interaction score)) in test [1] was -2.29; in test [2], -0.36; in [3], -0.34; in test [4], -0.26; in test [17], -2.15; in [18] it was -2.21.

Regarding “GGCUAGAACUAGUGGAUCCCCCGGCGCCCGGCGGCUCGAGCCCGGGUAAGUGUACAUAGUCUGCAUGCCGCCGGGCGCCAUGCCUGCAGGUCGACUCUAGAAAACAUG”, the binding signal (log2 enrichment (interaction score)) in test [19] was -1.42; in test [20], 1.24.

For the sequence “GGCUAGAACUAGUGGAUCCCCCGGCGCCCGGCGGCUCGAGCCCGGGUAAGUGUAAGUAGUCUGCAUGCCGCCGGGCGCCAUGCCUGCAGGUCGACUCUAGAAAACAUG”, the binding signal (log2 enrichment (interaction score)) in test [5] is -0.34; in test [6], -1.56; in test [7] it was -0.89; in test [8], -1.43; in test [9], -0.33; in [10], -1.78. Moreover, the binding signal (log2 enrichment (interaction score)) was -1.16 in test [11]; -1.31 in test [12]; -1.22 in test [13]; -1.61 in [14]; -1.27 in [15]; -0.34 in [16].
